# In PubChem BioAssay AID588590 (National Center for Advancing Translational Sciences (NCATS), 2011):
# Protein sequences, listed by entry. Tags and fused reporters are not part of them.
# UniProt Q9UNA4, whole entry: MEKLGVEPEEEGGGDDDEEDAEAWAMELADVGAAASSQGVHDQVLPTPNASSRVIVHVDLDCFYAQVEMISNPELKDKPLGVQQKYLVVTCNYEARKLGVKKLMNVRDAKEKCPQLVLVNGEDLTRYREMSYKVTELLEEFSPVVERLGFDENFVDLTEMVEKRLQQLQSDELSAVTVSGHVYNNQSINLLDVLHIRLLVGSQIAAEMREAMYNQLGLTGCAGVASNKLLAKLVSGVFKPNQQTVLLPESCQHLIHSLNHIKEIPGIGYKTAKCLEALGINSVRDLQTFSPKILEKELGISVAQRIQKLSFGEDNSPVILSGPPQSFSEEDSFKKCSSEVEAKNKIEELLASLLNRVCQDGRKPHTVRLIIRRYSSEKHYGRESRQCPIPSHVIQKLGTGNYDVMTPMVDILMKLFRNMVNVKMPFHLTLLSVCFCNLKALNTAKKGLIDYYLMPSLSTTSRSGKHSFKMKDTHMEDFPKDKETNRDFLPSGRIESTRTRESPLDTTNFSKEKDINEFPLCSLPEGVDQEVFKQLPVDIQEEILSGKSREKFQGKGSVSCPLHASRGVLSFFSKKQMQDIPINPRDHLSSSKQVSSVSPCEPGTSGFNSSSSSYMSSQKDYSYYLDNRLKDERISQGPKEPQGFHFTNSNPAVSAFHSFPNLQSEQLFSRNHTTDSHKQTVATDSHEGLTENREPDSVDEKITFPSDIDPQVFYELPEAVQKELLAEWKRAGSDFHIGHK
# Hit rate of the full screen: of about 390,000 compounds, about 4,000 (1%) were called active. These results got no clear call from the source, so the numbers are uncertain. Calls come from the whole dose curve; as a rule, active = well fitted inhibition curve with a large enough effect; inconclusive = small, poorly fitted or top-dose-only effect, or another doubt; inactive = no such curve, though single readings can be large or run the other way. Some results for these compounds are left out of this collection, so the calls shown say nothing about other tests.
# Target: DNA polymerase iota (Homo sapiens) (UniProt Q9UNA4)
# Assay: qHTS for Inhibitors of Polymerase Iota
# Settings: Pol iota fluorescent replication assay, 10 min
# Potency is the fitted concentration of half-maximal effect.
row,Compound,Potency
1,Cc1ccc(C(=O)NCC2(N3CCCCC3)CCCCC2)cc1,inconclusive: 100 µM
